Source: PMC11024108
These are yes or no findings as the source states them, for the method shown. In cells and extracts the contact can be indirect. Some results given as binding are weak or reduced against the parent protein; the word gives no strength.

Assays:
[1] = target: T1, VDAC2 (human (endogenous in HEK293T)) (UniProt P45880); assay: cross-linking; intact high purity mitochondria from HEK293T cells, 1 mg/ml in Buffer M, two aliquots of 0.5 mM DSSO, each 20 min at room temperature; cross-linked lysine pairs identified by LC-MS (XlinkX), 2% FDR at the level of unique cross-linked residue pairs; three biological replicates
T1 sequence: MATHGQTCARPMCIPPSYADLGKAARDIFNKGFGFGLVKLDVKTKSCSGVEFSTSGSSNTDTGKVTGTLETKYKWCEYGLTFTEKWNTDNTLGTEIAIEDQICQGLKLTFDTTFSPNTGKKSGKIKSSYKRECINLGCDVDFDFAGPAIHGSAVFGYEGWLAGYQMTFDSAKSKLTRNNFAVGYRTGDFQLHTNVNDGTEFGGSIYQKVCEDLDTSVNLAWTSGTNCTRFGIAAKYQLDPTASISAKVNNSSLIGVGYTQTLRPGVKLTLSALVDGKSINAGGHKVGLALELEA

[2] = target: T2, CYB5R3 (human (endogenous in HEK293T)) (UniProt P00387); assay: as above
T2 sequence: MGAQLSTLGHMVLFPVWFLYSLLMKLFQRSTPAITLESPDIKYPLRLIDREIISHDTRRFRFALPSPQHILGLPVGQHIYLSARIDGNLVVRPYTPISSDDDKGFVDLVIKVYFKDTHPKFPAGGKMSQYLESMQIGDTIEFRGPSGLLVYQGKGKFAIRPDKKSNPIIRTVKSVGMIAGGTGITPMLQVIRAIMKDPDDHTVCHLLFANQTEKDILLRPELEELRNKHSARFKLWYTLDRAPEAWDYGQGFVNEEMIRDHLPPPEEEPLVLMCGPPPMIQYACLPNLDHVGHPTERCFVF

binding [1]: binds
binding [2]: binds
B1: FAF2 (protein, UniProt Q96CS3 1-445)
chain: MAAPEERDLTQEQTEKLLQFQDLTGIESMDQCRHTLEQHNWNIEAAVQDRLNEQEGVPSVFNPPPSRPLQVNTADHRIYSYVVSRPQPRGLLGWGYYLIMLPFRFTYYTILDIFRFALRFIRPDPRSRVTDPVGDIVSFMHSFEEKYGRAHPVFYQGTYSQALNDAKRELRFLLVYLHGDDHQDSDEFCRNTLCAPEVISLINTRMLFWACSTNKPEGYRVSQALRENTYPFLAMIMLKDRRMTVVGRLEGLIQPDDLINQLTFIMDANQTYLVSERLEREERNQTQVLRQQQDEAYLASLRADQEKERKKREERERKRRKEEEVQQQKLAEERRRQNLQEEKERKLECLPPEPSPDDPESVKIIFKLPNDSRVERRFHFSQSLTVIHDFLFSLKESPEKFQIEANFPRRVLPCIPSEEWPNPPTLQEAGLSHTEVLFVQDLTDE
